Where a SMILES comes first, the peptide text is derived from it.
Tested on: E. coli BL21
Conditions: Table II; dose-response curve fitted to Hill equation

SMILES | Hill coefficient
CC[C@H](C)[C@H](NC(=O)[C@H](CCCCN)NC(=O)[C@H](CC(C)C)NC(=O)[C@@H](NC(=O)[C@H](CCC(=O)O)NC(=O)[C@H](CCCCN)NC(=O)[C@@H]1CCCN1C(=O)[C@H](CC(C)C)NC(=O)[C@H](CCCCN)NC(=O)[C@@H](N)CCCCN)[C@@H](C)CC)C(=O)N[C@@H](CC(C)C)C(=O)NCC(=O)N[C@@H](CO)C(=O)NCC(=O)N[C@@H](Cc1ccc(O)cc1)C(=O)NCC(=O)N[C@@H](CO)C(=O)N[C@@H](CC(C)C)C(=O)N1CCC[C@H]1C(=O)N[C@@H](CCCCN)C(=O)N[C@@H](CCC(=O)O)C(=O)N[C@H](C(=O)N[C@@H](CC(C)C)C(=O)N[C@@H](CCCCN)C(=O)N[C@H](C(=O)N[C@@H](CC(C)C)C(=O)N[C@@H](CCC(=O)O)C(=O)N[C@@H](CC(C)C)C(=O)N[C@@H](CCCCN)C(=O)N[C@@H](CCCCN)C(=O)O)[C@@H](C)CC)[C@@H](C)CC [Gen-1] (H-KKLPKEILKILGSGYGSLPKEILKILELKK-OH; N-terminus and C-terminus assumed) | 41
CC[C@H](C)[C@H](NC(=O)[C@H](CCC(=O)O)NC(=O)[C@H](CC(C)C)NC(=O)[C@@H](NC(=O)[C@H](CCCCN)NC(=O)[C@H](CCC(=O)O)NC(=O)[C@@H]1CCCN1C(=O)[C@H](CC(C)C)NC(=O)[C@H](CCCCN)NC(=O)[C@@H](N)CCCCN)[C@@H](C)CC)C(=O)N[C@@H](CC(C)C)C(=O)NCC(=O)N[C@@H](CO)C(=O)NCC(=O)N[C@@H](Cc1ccc(O)cc1)C(=O)N[C@@H](CCCCN)C(=O)N[C@@H](CCCCN)C(=O)N[C@@H](CC(C)C)C(=O)N1CCC[C@H]1C(=O)N[C@@H](Cc1ccccc1)C(=O)N[C@@H](Cc1c[nH]c2ccccc12)C(=O)N[C@@H](CCC(N)=O)C(=O)N[C@@H](CCCNC(=N)N)C(=O)N[C@@H](CCCNC(=N)N)C(=O)N[C@H](C(=O)N[C@@H](CCCNC(=N)N)C(=O)N[C@@H](CCCNC(=N)N)C(=O)N[C@@H](Cc1c[nH]c2ccccc12)C(=O)N[C@@H](CCCNC(=N)N)C(=O)N[C@@H](CCCNC(=N)N)C(=O)O)[C@@H](C)CC [Gen-2] (H-KKLPEKILEILGSGYKKLPFWQRRIRRWRR-OH; N-terminus and C-terminus assumed) | 10
CC[C@H](C)[C@H](NC(=O)[C@H](CCCCN)NC(=O)[C@H](CC(C)C)NC(=O)[C@@H](NC(=O)[C@H](CCCCN)NC(=O)[C@H](CCCCN)NC(=O)[C@@H](NC(=O)[C@H](CC(C)C)NC(=O)[C@H](CCCCN)NC(=O)[C@@H](N)CCCCN)[C@@H](C)CC)[C@@H](C)CC)C(=O)N[C@@H](CC(C)C)C(=O)O [Peptide 11P-1, reference compound] (H-KKLIKKILKIL-OH; N-terminus and C-terminus assumed) | 6
CC[C@H](C)[C@H](NC(=O)[C@H](CCCNC(=N)N)NC(=O)[C@H](CCCNC(=N)N)NC(=O)[C@H](CCC(N)=O)NC(=O)[C@H](Cc1c[nH]c2ccccc12)NC(=O)[C@@H](N)Cc1ccccc1)C(=O)N[C@@H](CCCNC(=N)N)C(=O)N[C@@H](CCCNC(=N)N)C(=O)N[C@@H](Cc1c[nH]c2ccccc12)C(=O)N[C@@H](CCCNC(=N)N)C(=O)N[C@@H](CCCNC(=N)N)C(=O)O [Peptide 11P-3, reference compound] (H-FWQRRIRRWRR-OH; N-terminus and C-terminus assumed) | 4
CC[C@H](C)[C@H](NC(=O)[C@H](CCCCN)NC(=O)[C@H](CC(C)C)NC(=O)[C@@H](NC(=O)[C@H](CCCCN)NC(=O)[C@H](CCCCN)NC(=O)[C@@H]1CCCN1C(=O)[C@H](CC(C)C)NC(=O)[C@H](CCCCN)NC(=O)[C@@H](N)CCCCN)[C@@H](C)CC)C(=O)N[C@@H](CC(C)C)C(=O)NCC(=O)N[C@@H](CO)C(=O)NCC(=O)N[C@@H](Cc1ccc(O)cc1)C(=O)NCC(=O)N[C@@H](CO)C(=O)N1CCC[C@H]1C(=O)NCC(=O)N[C@@H](Cc1ccccc1)C(=O)N[C@@H](Cc1c[nH]c2ccccc12)C(=O)N[C@@H](CCC(N)=O)C(=O)N[C@@H](CCCNC(=N)N)C(=O)N[C@@H](CCCNC(=N)N)C(=O)N[C@H](C(=O)N[C@@H](CCCNC(=N)N)C(=O)N[C@@H](CCCNC(=N)N)C(=O)N[C@@H](Cc1c[nH]c2ccccc12)C(=O)N[C@@H](CCCNC(=N)N)C(=O)N[C@@H](CCCNC(=N)N)C(=O)O)[C@@H](C)CC [Peptide 30P-3] | 9
CC(C)C[C@@H]1NC(=O)[C@H](CCCNC(=N)N)NC(=O)[C@H](CCCNC(=N)N)NC(=O)[C@@H](NC(=O)[C@@H](N)CCCCN)CSSC[C@@H](C(=O)N[C@@H](CCCNC(=N)N)C(=O)NCC(=O)N[C@@H](CCCNC(=N)N)C(=O)N[C@@H](CCC(N)=O)C(=O)O)NC(=O)[C@H](Cc2ccc(O)cc2)NC(=O)[C@H]([C@@H](C)O)NC(=O)[C@H](C(C)C)NC(=O)[C@@H]2CSSC[C@H](NC1=O)C(=O)N[C@@H](Cc1ccc(O)cc1)C(=O)N[C@@H](CCCCN)C(=O)N[C@@H](CCC(N)=O)C(=O)N[C@@H](CCCNC(=N)N)C(=O)N2 [Peptide L19GA, KC2RRLC6YKQRC11VTYC15RGRQ] | 20

Reference: patent US20250243245A1 (priority 2022, published 2025)
